In the experiment the target is hE1 for Nedd8 (APPBP1-UBA3, NAE1-UBA3) (Homo sapiens) (UniProt Q13564). The experiment in a line: ITC, peptide titrated into E1. For orientation: ITC needs no label: the signal is the heat of the interaction.

Amino acid sequences for entries named in this document (tags omitted). A change or cut given only in a name is not applied to a line headed by its entry.
UniProt Q13564: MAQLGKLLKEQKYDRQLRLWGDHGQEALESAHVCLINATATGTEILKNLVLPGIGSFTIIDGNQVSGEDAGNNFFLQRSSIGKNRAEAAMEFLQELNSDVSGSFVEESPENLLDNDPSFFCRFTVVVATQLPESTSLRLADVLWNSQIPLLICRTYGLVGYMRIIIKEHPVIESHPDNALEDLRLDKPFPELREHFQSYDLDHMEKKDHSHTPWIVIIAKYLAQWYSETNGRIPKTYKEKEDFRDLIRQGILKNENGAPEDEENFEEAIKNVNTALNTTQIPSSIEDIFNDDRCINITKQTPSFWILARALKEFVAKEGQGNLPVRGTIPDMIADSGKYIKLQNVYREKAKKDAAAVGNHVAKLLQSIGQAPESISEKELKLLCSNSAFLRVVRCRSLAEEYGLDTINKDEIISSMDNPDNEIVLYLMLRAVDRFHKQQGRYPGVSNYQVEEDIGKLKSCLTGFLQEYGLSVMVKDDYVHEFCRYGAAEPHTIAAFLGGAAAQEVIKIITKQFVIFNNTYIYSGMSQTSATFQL

No constants are given. Whether binding was seen depends on the method and setting. Some binding calls cover weakened binding; strength is not graded here.

We go through one molecule from patent US20140179593A1 (published 2014).

B1: Acetyl-hUbc12^1-26 (peptide)
peptide: MIKLFSLKQQKKEEESAGGTKGSSKK
modifications: N-terminal acetyl on Met1; C-terminal amide
As for B1, the binding result is “binds”.
